Experimental data reported in patent US10342796B2, “Acrylanilide derivative, preparation method, and applications thereof in pharmacy” (Ancureall Pharmaceutical (Shanghai) Co., Ltd., priority 2015, dated 2019).
For at least one compound, name, drawing or mass did not settle the structure.

Tests used:
[1] = test system: Ramos (BTK); experiment: Growth inhibition GI50 in vitro (CCK8/MTT, 72 h); format: cell-based, human; conditions: BTK+ Ramos cells
Protocol: RAMOS is human B lymphocytic leukemia cell line positively expressing BTK. It was cultured with 1×RPMI1640 complete medium (supplement with 10% FBS).
(§1) The suspension cells were collected by centrifugation. The supernatant was discard and the cell pellet was resuspended and counted. Different cell concentrations (5˜10×10^4 cells/mL) were prepared according to the growth cycle of each cell line and then seeded on a 96-well plate (Corning), 100 μL/well. The cells were incubated over night at 37° C., 5% CO2. The compounds were added to the cells on the second day with 2 wells in parallel. The final concentration of organic solvent shall not exceed 1%. […]
(§2) Dojindo CCK8 reagent kit was used as MTT assay. […] FC meter was used as microplate reader.
(§3) Adherent cell culture medium was discard and immediately replaced with fresh prepared medium which contains 10% CCK8 reagent (100 μL/well). […] When the color of control wells turned to dark yellow, the absorption value was measured at OD450 nm. The cell growth rate was calculated according to the following formula: cell growth rate (%)=100*(T−T0)/(C−T0), T=optical density of drug treatment cell well—optical density of blank control well; T0=optical density of cell well before drug treatment—optical density of blank control well; C=optical density of cell well of solvent control group—optical density of blank control well. […]

[2] = test system: MV4-11 (FLT3-ITD); experiment: Growth inhibition GI50 in vitro (CCK8/MTT, 72 h); format: cell-based, human; conditions: FLT3-ITD+ MV4-11 cells
Protocol: FLT3 is a kind of PTK and about 20-30% of patients with acute myelocytic leukemia (AML) in clinic express FLT3-ITD mutation protein. FLT3-ITD positive cell line MV4-11 was cultured with 1×RPMI1640 complete medium (supplement with 10% FBS).
as §1, with “parallel.” for “parallel. The final concentration of organic solvent shall not exceed 1%.”
as §2, §3

## C=CC(=O)Nc1cc(Nc2cc(Nc3ccc(F)c(Cl)c3)ncn2)c(OC)cc1N1CCN(C2CCN(C)CC2)CC1 [Compound 147, N-(5-(6-(3-chloro-4-fluoro-phenylamino)-pyrimidin-4-ylamino)-4-methoxyl-2-(4-(1-methylpiperidin-4-yl)-piperazin-1-yl)-phenyl)-acrylamide]
[1]
  inhibition effects: moderate inhibition effects
[2]
  inhibition effects: moderate inhibition effects
